Test results: PMC6039501

By UniProt entry, the sequences of proteins in these tests, tags left out.
UniProt O15524: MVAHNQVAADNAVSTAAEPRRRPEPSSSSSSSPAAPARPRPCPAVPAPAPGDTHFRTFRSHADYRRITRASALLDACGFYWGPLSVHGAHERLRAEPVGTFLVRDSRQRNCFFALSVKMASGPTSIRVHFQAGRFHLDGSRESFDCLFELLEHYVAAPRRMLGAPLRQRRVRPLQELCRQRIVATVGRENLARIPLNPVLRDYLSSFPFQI

Biological target: Myc-SOCS1 (suppressor of cytokine signalling-1) (UniProt O15524)
Experiment: affinity purification with mass spectrometry; Myc-SOCS1 overexpressed in KG-1 cells; immunoprecipitation with a SOCS1-specific antibody, Protein A/G-Sepharose, 6 h at 4 °C; bands analysed by ion-trap MS

binding: binds
B1: CUE domain-containing 2 (CUEDC2), endogenous (protein, UniProt Q9H467 1-287)
chain: MELERIVSAALLAFVQTHLPEADLSGLDEVIFSYVLGVLEDLGPSGPSEENFDMEAFTEMMEAYVPGFAHIPRGTIGDMMQKLSGQLSDARNKENLQPQSSGVQGQVPISPEPLQRPEMLKEETRSSAAAAADTQDEATGAEEELLPGVDVLLEVFPTCSVEQAQWVLAKARGDLEEAVQMLVEGKEEGPAAWEGPNQDLPRRLRGPQKDELKSFILQKYMMVDSAEDQKIHRPMAPKEAPKKLIRYIDNQVVSTKGERFKDVRNPEAEEMKATYINLKPARKYRFH

These are yes or no findings as the source states them, for the method shown. Binding seen in cells or lysates may run through a third protein. These calls come from enrichment with a bait or labelling near it, and not all partners need be listed.
